Laboratory results as given in publication PMC7541494.

Target: PilW3 fused to super-folder GFP (M. xanthus)
Test: affinity purification with mass spectrometry; pull-down with GFP-Trap agarose from detergent-lysed M. xanthus cell extracts, 1 h at 4 °C; LFQ-MS, enrichment against GFP-FLAG control; two biological replicates

binding: binds
B1: PilB, endogenous (enzyme, UniProt Q1D098 1-566)
chain: MSGRLGELLVRENLISVQQLRKAQEEQQKNGTRIGTALVKTGAIEESKLTDFLSKQYGVPAINLKDFDVEPDIIKLVPKEVAEKHLVVPVNRAGPSLIVAMCDPSNIFAVDDLKFLTGYNIETVVASEVSIREAIERYYAEKGPSLEDIVGDVGDDIEVTKEETENIDEMAKAADDAPVVKLVNLILMDAIKKRASDIHVEPYEKDFRVRFRIDGVMYEVMRPPMKLRNAITSRLKIMASLDISERRLPQDGRIKIKMGGGKEMDFRVSVCPTLFGEKVVMRLLDKSNLQLDMTKLGFDAQPLAWFKEAIDRPYGMVLVTGPTGSGKTTTLYSALSSLNGLDTNICTAEDPVEFNFAGINQVQMHDDIGLNFAAALRSFLRQDPDIIMIGEIRDFETAEIGVKAALTGHLVLSTLHTNDAPGTVSRLLNMGIEPFLVTASLNLILAQRLARRLCPACKKPAENVDEQALIDAGVPPDKIGTFTMYEKVGCRDCNDRGYRGRVAIYEVMPFWDGLKELVINGASAAELKQEAIRLGMSSLRMSGLRKMMDGATTLEEVVGNTAPDRF

These are yes or no findings as the source states them, for the method shown. In cells and extracts the contact can be indirect. Here binding means that the protein was enriched with, or labelled near, the bait; the list need not be complete.
